Experimental data as given in PMC12424427.
Construct, isoform or probe ends are uncertain for at least one entry.

Protein sequences, listed by entry. Tags and fused reporters are not part of them.
UniProt Q9UKV8, whole entry: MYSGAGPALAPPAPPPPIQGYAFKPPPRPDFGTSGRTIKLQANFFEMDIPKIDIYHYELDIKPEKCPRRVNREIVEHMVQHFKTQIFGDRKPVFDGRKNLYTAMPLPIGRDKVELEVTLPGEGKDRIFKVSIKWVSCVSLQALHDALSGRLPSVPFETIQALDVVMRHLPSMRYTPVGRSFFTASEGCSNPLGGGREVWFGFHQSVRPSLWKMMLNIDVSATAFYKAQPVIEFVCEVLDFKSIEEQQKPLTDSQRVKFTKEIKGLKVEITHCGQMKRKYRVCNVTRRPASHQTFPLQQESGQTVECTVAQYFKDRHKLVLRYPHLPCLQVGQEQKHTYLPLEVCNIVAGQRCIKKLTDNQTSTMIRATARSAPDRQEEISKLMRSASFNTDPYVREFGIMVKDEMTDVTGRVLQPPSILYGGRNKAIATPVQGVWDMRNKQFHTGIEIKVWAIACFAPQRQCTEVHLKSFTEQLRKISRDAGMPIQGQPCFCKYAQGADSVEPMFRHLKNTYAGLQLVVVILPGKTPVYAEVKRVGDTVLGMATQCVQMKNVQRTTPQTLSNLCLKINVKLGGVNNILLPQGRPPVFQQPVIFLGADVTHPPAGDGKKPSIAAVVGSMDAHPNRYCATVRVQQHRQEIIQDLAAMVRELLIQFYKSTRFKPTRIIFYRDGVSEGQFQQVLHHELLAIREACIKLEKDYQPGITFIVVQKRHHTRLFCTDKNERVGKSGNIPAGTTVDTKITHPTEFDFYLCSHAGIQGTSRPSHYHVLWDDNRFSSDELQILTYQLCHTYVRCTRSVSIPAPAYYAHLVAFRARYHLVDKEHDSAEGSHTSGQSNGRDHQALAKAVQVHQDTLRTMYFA

Molecular target: AGO2 (UniProt Q9UKV8)
Experiment: competition (MST)
Conditions: competitor vs 3p-hpRNA: 1x partly reduces, 10x completely disrupts; 5'-phosphate; 3' dTdT (last two nt are DNA); commercial protein; protein details: fluorescent RED-NHS label when target

## GCAUGCGACCUCUGUUUGATT [siRNA]
  binding result: binds
